Experimental data reported in article doi:10.1101/807271.
No constants are given. Whether binding was seen depends on the method and setting. Binding seen in cells or lysates may run through a third protein. Some results given as binding are weak or reduced against the parent protein; the word gives no strength.

By UniProt entry, the sequences of proteins in these tests, tags left out.
UniProt Q62432: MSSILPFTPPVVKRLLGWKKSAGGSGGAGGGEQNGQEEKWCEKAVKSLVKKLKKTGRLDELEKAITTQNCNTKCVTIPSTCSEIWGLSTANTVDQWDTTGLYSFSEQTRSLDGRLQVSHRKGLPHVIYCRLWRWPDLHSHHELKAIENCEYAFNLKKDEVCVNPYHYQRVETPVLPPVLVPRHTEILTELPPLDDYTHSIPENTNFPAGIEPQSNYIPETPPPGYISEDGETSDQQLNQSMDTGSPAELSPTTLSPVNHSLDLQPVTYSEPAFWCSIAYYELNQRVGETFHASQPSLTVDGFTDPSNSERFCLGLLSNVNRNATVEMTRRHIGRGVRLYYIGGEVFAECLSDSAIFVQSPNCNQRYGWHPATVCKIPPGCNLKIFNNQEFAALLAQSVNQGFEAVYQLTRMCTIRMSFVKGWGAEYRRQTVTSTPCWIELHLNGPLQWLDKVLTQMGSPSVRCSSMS
UniProt Q15796: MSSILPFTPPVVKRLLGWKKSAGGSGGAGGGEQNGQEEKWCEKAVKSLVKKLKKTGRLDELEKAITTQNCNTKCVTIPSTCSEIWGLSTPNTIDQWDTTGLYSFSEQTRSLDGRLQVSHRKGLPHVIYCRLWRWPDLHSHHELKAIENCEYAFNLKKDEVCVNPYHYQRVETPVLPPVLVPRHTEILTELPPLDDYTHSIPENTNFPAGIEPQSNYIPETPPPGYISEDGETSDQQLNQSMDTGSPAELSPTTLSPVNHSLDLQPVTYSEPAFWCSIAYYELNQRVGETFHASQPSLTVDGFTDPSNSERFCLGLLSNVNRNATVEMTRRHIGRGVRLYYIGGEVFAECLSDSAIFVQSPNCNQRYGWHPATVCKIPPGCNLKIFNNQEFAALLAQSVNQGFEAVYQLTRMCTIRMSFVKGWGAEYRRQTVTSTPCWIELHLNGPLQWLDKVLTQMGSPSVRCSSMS

Legend:
[1] = target: T1, SATB1 (mouse (endogenous in primary MGE cells)) (UniProt Q60611); assay: proximity ligation
T1 sequence: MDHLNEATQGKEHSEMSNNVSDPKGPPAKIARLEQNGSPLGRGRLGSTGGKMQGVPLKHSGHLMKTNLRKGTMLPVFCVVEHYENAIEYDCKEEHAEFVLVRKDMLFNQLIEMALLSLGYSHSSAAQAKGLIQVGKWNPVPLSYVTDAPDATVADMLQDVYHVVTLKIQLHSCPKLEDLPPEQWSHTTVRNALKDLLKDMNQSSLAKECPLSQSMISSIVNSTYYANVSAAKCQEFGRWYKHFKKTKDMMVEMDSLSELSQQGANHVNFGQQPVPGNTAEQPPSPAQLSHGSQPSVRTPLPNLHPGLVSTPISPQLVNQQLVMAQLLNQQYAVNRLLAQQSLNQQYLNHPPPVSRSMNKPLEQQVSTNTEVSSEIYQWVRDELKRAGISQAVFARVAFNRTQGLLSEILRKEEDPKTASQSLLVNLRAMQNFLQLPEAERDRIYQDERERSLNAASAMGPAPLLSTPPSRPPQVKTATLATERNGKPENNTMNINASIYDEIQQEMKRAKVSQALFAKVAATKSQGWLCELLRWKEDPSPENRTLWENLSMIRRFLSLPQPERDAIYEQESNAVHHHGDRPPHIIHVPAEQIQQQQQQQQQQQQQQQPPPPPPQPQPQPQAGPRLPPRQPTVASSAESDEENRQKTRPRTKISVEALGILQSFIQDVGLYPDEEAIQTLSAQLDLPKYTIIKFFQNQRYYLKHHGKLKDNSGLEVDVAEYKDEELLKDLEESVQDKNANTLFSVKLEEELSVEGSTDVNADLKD

[2] = target: T2, SATB1 (Jurkat cells) (human (endogenous in Jurkat)) (UniProt Q01826); assay: co-IP
T2 sequence: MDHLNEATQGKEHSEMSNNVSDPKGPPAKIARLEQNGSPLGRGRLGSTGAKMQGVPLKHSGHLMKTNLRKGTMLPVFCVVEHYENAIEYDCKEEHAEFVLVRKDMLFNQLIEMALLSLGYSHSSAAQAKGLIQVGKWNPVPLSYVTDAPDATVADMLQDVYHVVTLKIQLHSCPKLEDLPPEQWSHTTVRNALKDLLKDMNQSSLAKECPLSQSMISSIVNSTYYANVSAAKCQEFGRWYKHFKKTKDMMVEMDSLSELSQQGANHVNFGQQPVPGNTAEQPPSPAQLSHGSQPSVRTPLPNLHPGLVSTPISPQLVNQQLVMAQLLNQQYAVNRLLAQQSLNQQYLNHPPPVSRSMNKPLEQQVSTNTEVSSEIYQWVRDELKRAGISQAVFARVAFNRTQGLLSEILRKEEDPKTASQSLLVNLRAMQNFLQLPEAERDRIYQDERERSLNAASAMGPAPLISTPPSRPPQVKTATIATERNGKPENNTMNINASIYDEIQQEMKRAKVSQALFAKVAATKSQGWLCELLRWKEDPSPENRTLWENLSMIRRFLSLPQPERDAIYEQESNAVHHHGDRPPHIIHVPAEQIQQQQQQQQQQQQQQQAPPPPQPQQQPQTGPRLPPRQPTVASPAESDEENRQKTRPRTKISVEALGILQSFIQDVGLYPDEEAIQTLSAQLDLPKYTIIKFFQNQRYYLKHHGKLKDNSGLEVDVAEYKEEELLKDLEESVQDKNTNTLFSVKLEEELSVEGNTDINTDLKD

Row | Substance | binding [1] | binding [2]
1 | Smad2 (from UniProt Q62432 1-467) | binds | 
2 | Smad2 (Jurkat cells) (from UniProt Q15796 1-467) |  | binds
